According to PubChem BioAssay AID2685 (National Center for Advancing Translational Sciences (NCATS), 2010):
The other results are listed elsewhere or left out. The main result of the screen is listed elsewhere. These columns were measured beside it and carry no call. Compounds called inactive in the main read-out are mostly missing here. Potencies come from curve fits of mixed quality, noted in brackets.

Assay: qHTS Assay for Lipid Storage Modulators in Drosophila S3 Cells;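 as to cell number change: cells counted by Cell Tracker Red CMTPX staining in the red channel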
Conditions: BODIPY lipid droplet fluorescence, 18-24 h; for cell number change: measured here: cell count max response, cells fed with added oleic acid
Summary of the method: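 Drosophila S3 cells loaded with oleic acid (400 uM, as added) and compounds at several concentrations; lipid droplets imaged by 488-nm laser-scanning cytometry, 500–530 nm intensity and object ratio to cell channel. Percent activity normalized to 20 uM Triacsin C.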

[1] = measured here: cell number channel AC50, cells fed with added oleic acid
[2] = measured here: lipid fluorescence (Fed channel) AC50, cells fed with added oleic acid

Structure (SMILES) | cell number change | AC50 [1] | AC50 [2]
Cc1ccc(S(=O)(=O)N2CCN(C(=O)C3CCCO3)CC2)cc1C (stereo not drawn) | 39.8% | 10 µM [rising, partial curve] | 8.91 µM [rising, partial curve]
CC(=O)NCCc1nc2ccccc2n1CCOc1cccc(C)c1 |  |  | 1.3 µM [rising, full curve, poor fit]
COc1ccccc1C(=O)NN1C(=O)/C(=C/c2cccn2C)SC1=S | 5.55% |  | 0.164 µM [rising, full curve, poor fit]
O=C(NCc1cn2ccsc2n1)Nc1cccc(Cl)c1 | 18.8% |  | 
CCOC(=O)N1CCN(C(=O)/C=C/c2ccc(OC)cc2)CC1 | -13.7% |  | 
COc1ccc(-c2cc(C(=O)Nc3ccc(O)cc3)c3ccccc3n2)cc1OC | 1.22% |  | 0.00461 µM [rising, full curve, poor fit]
CCOC(=O)c1cc(-c2ccccc2C)nn1Cc1cc(CC)no1 | -14% |  | 0.206 µM [rising, full curve]
CS(=O)(=O)c1ccc(Cl)c(NC(=O)CCCc2nc3ccccc3c(=O)[nH]2)c1 | 51.2% | 13 µM [rising, partial curve] | 2.06 µM [rising, partial curve, poor fit]
O=C(N/N=C/c1c(Cl)nc2ccccn2c1=O)c1cccnc1 | -15.3% |  | 0.00461 µM [falling, full curve, poor fit]
COc1cccc(OC)c1C(=O)Nc1nc2ccc(S(C)(=O)=O)cc2s1 | 10.9% |  | 
Cc1ccccc1CN1CCN(C(=O)c2ccco2)CC1 | 57.7% | 16.4 µM [rising, single point] | 
Cc1ccnc(NC(=O)c2cccc(NS(=O)(=O)c3ccccc3C)c2)c1 | -27.9% |  | 29.1 µM [rising, single point]
Cc1cccc(NC(=O)NC(C)C(c2cccs2)N2CCOCC2)c1 (stereo not drawn) | 44% | 29.1 µM [rising, single point] | 
Cc1cc(C(=O)CN2C(=O)c3ccccc3C2=O)c(C)n1Cc1cccs1 | -26.1% |  | 18.4 µM [falling, single point]
CC(=O)c1ccc(S(=O)(=O)Nc2ccc(-c3cn4c(n3)SCC4)cc2)cc1 | -12.1% |  | 0.517 µM [rising, single point]
Fc1ccc(NC(=S)Nc2cc(-c3ccccc3)[nH]n2)cc1Cl | 17.4% |  | 1.46 µM [rising, partial curve, poor fit]
Cc1cc(NC(=O)c2cccc(S(=O)(=O)N3CCC(C)CC3)c2)no1 | -6.93% | 3.26 µM [rising, single point] | 29.1 µM [rising, single point]

Part of the list above, with each value named:
Cc1ccnc(NC(=O)c2cccc(NS(=O)(=O)c3ccccc3C)c2)c1
  cell number change: -27.9%
  AC50 [2]: 29.1 µM [rising, single point]
Cc1cccc(NC(=O)NC(C)C(c2cccs2)N2CCOCC2)c1 (stereo not drawn)
  cell number change: 44%
  AC50 [1]: 29.1 µM [rising, single point]
